Source: the supplement of paper PMC6411743
± gives the standard deviation of the averaged measurements. This is a selection; strong and weak results do not stand in their true shares.

Chains of the proteins cited; added tags and fusions are not shown. Lines headed by an entry give the natural chain unless they say otherwise; changes in a name come on top.
UniProt Q8TC12: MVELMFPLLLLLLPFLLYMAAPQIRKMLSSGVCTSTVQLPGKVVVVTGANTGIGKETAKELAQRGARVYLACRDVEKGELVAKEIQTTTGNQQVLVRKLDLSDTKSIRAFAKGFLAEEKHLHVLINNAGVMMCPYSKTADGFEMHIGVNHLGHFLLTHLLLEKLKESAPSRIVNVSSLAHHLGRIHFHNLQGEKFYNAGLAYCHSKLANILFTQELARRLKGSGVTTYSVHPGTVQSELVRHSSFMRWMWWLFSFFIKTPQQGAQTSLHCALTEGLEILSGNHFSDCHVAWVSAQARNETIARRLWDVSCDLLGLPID
UniProt Q8WUF8: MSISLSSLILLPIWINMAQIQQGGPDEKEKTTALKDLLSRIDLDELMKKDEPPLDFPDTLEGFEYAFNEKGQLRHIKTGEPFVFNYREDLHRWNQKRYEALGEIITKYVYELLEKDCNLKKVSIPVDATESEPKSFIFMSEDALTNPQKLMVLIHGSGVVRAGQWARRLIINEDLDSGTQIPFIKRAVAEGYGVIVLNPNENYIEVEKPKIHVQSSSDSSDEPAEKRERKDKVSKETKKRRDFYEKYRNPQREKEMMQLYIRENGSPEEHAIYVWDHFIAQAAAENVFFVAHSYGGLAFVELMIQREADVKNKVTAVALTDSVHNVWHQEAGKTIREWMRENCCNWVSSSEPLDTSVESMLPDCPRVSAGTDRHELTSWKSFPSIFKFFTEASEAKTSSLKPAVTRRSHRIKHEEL
UniProt Q8TDR0: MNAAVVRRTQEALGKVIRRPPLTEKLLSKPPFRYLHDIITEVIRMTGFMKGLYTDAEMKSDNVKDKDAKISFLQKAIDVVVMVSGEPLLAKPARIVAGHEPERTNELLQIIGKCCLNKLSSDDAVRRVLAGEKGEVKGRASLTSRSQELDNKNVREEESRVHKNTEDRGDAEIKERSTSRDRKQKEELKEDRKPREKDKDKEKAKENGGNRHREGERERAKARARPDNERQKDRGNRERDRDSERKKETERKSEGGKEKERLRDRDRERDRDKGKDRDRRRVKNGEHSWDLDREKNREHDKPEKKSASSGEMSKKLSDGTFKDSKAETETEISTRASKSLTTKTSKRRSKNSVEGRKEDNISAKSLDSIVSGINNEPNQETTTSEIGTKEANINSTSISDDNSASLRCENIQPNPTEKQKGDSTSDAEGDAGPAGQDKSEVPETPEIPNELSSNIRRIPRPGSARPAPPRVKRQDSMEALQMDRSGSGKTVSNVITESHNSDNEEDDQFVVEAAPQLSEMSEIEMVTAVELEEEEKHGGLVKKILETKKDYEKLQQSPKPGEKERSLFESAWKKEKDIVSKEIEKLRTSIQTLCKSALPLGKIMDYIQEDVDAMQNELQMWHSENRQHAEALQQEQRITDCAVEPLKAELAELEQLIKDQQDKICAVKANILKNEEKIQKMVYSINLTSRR
UniProt Q92625: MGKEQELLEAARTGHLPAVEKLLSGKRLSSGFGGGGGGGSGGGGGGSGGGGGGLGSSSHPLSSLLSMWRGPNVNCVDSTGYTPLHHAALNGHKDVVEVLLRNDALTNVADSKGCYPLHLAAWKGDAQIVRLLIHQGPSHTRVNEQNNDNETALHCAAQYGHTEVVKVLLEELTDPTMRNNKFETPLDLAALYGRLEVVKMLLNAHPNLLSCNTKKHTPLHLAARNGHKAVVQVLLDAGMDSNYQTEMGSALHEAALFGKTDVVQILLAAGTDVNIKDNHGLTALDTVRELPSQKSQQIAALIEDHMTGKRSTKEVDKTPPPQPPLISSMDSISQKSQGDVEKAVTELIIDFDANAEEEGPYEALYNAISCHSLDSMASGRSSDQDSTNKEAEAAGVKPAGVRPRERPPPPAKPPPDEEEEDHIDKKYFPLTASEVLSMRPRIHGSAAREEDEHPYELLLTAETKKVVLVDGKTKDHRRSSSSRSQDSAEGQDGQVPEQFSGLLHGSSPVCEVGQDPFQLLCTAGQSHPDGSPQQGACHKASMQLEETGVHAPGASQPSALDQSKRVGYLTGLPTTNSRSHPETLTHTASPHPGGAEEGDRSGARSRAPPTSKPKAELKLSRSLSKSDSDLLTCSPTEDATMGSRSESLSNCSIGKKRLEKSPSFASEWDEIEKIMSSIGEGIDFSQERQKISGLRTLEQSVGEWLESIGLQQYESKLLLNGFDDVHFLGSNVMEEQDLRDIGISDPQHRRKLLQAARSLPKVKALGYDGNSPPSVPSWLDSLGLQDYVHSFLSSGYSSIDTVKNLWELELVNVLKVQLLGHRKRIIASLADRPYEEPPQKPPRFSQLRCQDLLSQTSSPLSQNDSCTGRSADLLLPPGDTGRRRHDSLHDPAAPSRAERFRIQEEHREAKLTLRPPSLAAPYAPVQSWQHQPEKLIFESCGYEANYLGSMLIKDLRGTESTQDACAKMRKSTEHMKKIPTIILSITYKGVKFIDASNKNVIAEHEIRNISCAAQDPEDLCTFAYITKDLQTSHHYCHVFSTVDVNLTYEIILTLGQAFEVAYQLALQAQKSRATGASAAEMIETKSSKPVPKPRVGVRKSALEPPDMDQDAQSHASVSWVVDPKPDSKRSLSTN
UniProt Q92667: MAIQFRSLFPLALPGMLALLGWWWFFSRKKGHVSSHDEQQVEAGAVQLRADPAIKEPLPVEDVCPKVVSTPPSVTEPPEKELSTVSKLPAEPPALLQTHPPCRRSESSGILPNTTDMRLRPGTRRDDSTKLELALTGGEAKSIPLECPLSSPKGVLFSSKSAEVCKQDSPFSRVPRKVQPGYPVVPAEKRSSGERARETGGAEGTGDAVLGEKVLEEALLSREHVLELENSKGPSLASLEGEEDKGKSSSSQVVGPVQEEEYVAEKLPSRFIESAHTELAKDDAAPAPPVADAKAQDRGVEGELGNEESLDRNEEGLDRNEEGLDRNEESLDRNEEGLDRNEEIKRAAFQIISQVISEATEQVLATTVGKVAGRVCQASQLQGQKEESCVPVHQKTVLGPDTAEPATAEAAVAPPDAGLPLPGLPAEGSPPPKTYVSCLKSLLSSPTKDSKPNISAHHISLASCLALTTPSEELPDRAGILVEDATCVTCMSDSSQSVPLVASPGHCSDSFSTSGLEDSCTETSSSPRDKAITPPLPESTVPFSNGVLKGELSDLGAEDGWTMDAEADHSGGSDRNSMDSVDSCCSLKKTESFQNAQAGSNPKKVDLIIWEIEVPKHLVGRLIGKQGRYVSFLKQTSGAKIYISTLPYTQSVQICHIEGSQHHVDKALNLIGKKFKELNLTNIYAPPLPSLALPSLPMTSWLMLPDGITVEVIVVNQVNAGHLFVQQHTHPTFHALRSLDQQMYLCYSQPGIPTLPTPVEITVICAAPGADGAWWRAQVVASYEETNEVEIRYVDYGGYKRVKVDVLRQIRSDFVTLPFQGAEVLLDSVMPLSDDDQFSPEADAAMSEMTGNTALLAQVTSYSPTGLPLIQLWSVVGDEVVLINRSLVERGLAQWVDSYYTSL
UniProt Q969E4: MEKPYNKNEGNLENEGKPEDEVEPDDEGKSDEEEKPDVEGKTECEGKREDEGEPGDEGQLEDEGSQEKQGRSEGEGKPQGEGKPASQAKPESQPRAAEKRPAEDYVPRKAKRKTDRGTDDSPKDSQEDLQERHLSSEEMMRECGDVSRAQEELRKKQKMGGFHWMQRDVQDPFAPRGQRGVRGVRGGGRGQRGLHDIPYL
UniProt Q96AZ6: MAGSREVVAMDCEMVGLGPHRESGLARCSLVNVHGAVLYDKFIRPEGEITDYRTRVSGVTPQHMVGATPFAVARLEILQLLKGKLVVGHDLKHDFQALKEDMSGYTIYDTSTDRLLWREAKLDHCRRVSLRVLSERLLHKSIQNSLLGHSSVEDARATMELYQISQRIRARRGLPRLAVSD
UniProt Q8WVD3: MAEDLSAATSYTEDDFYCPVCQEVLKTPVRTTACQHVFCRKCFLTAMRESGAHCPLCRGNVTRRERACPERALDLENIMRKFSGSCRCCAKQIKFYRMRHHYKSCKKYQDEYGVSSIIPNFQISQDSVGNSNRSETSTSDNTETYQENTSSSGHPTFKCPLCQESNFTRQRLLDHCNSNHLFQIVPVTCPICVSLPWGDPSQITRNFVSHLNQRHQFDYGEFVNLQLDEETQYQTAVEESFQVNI
UniProt Q8WU76: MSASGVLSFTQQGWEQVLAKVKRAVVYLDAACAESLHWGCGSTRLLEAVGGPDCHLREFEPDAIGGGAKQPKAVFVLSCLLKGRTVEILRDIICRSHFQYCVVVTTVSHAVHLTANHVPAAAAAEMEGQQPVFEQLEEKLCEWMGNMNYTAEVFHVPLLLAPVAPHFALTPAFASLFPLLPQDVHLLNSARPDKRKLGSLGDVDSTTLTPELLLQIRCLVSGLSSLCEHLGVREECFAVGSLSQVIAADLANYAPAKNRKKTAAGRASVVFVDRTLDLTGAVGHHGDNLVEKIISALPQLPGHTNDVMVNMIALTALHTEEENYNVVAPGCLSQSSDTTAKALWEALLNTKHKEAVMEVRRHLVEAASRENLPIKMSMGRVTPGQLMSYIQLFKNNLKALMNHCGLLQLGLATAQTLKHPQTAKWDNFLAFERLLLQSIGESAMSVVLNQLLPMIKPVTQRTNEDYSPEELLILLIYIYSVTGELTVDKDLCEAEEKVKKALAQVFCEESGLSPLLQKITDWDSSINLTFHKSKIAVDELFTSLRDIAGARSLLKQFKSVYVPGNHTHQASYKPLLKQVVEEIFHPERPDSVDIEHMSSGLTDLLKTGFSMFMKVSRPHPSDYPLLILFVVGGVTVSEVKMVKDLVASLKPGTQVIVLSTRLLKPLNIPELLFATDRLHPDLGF
UniProt Q92934: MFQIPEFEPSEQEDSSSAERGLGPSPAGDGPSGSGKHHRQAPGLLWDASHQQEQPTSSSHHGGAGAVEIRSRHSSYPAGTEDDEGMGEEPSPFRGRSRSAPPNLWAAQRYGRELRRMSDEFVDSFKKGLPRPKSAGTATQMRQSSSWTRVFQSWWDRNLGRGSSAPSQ
UniProt Q92696: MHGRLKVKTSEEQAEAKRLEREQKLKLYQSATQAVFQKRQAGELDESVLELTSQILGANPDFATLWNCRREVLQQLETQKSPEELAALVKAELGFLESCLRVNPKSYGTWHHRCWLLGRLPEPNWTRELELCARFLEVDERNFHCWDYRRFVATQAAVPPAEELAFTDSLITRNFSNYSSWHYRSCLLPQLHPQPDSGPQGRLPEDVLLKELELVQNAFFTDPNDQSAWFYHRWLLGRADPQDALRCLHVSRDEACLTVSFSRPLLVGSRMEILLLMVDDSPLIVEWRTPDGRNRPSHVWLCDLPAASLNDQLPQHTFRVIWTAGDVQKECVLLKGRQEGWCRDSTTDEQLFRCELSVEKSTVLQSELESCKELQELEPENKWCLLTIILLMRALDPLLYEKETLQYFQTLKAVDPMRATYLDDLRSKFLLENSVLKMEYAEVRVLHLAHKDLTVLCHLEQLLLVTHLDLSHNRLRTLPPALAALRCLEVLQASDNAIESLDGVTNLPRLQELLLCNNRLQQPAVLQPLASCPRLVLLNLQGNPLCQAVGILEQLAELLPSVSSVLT
UniProt Q8TBF4: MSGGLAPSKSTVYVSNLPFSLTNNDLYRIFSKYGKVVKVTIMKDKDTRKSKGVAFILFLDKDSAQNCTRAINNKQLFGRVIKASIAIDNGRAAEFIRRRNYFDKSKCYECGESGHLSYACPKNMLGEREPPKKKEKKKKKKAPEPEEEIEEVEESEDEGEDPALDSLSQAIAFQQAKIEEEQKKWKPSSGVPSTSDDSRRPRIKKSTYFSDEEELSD
UniProt Q8TEA1: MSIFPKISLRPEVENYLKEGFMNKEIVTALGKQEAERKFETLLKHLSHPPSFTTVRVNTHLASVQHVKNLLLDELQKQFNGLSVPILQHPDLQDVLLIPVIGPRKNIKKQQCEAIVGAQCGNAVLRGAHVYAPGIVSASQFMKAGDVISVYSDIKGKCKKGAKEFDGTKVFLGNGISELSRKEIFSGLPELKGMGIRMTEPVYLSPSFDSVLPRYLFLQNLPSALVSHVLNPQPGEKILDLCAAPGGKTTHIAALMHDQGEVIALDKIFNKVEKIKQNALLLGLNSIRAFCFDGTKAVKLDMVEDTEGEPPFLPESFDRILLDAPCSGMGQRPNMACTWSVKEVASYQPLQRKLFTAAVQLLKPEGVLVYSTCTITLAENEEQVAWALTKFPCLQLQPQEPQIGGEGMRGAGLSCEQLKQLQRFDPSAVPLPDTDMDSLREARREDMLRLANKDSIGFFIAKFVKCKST
UniProt Q96B01: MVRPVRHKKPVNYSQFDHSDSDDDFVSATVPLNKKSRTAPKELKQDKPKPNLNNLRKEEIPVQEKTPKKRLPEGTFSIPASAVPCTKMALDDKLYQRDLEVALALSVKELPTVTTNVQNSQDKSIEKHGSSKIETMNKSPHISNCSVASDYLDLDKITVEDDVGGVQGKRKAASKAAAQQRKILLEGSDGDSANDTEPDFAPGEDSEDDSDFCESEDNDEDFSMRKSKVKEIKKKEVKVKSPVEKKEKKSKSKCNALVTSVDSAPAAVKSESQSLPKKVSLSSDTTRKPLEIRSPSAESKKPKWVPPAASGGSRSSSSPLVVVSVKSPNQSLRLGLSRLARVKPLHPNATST

Compound: Nc1ncnc2c1ncn2[C@@H]1O[C@H](COP(=O)(O)OP(=O)(O)OP(=O)(O)O)[C@@H](O)[C@H]1O [adenosine triphosphate]
Assay: NP40-soluble protein abundance relative to vehicle (solubility fold change) (ratio); higher = more soluble protein in presence of ATP
Summary of the method: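 Jurkat crude lysate (Dounce-homogenised) was treated with eight concentrations from 0.1 to 10 mM for 10 min at room temperature, then 3 min at 37 °C. It was solubilised with 0.8% NP40 and benzonase (60 min, 4 °C) and ultracentrifuged, and the supernatant was TMT-labelled for LC-MS/MS. Intensities were vsn-normalised, and the value is the fold change against the NP40-processed vehicle per replicate, from three independent experiments.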

Target	NP40-soluble protein abundance (concentration: 1mM)	NP40-soluble protein abundance (concentration: 2mM)	NP40-soluble protein abundance (concentration: 4mM)	NP40-soluble protein abundance (concentration: 6mM)	NP40-soluble protein abundance (concentration: 8mM)	NP40-soluble protein abundance (concentration: 10mM)
SPPL2B (UniProt Q8TCT7)	0.981 ± 0.045	0.976 ± 0.047	0.962 ± 0.089	0.992 ± 0.059	0.942 ± 0.046	0.984 ± 0.082
RDH11 (UniProt Q8TC12)	0.959 ± 0.11	0.938 ± 0.072	0.925 ± 0.026	0.884 ± 0.11	0.946 ± 0.031	0.972 ± 0.035
UniProt Q969P0 and related entries	0.981 ± 0.02	0.977 ± 0.017	0.955 ± 0.029	0.974 ± 0.027	0.9583 ± 0.0042	0.982 ± 0.023
UniProt Q8WUI4 and related entries	1.01 ± 0.017	0.999 ± 0.038	1.02 ± 0.029	1.01 ± 0.023	0.9815 ± 0.008	0.999 ± 0.017
GPT2 (UniProt Q8TD30)	1.02 ± 0.072	1.02 ± 0.017	0.949 ± 0.051	0.951 ± 0.11	0.929 ± 0.042	0.97 ± 0.032
FAM172A (UniProt Q8WUF8)	1.04 ± 0.055	1.05 ± 0.037	1.06 ± 0.073	1.07 ± 0.022	1.03 ± 0.05	1.08 ± 0.045
UniProt Q8WXA9-2	1.37 ± 0.043	1.38 ± 0.053	1.38 ± 0.061	1.44 ± 0.06	1.38 ± 0.083	1.39 ± 0.058
UniProt Q96AE7-2|Q96AE7	1.05 ± 0.2	0.986 ± 0.16	0.994 ± 0.18	1.05 ± 0.14	1.02 ± 0.15	0.981 ± 0.22
OSTF1 (UniProt Q92882)	0.964 ± 0.024	0.961 ± 0.059	0.924 ± 0.045	0.952 ± 0.04	0.954 ± 0.063	0.915 ± 0.042
MYST3 (UniProt Q92794)	0.98 ± 0.084	1.07 ± 0.021	1.05 ± 0.12	0.992 ± 0.12	0.959 ± 0.043	1.02 ± 0.039
TGFBRAP1 (UniProt Q8WUH2)	1.03 ± 0.091	0.971 ± 0.048	0.982 ± 0.025	0.916 ± 0.051	0.997 ± 0.029	0.981 ± 0.042
CORO2A (UniProt Q92828)	1.04 ± 0.057	1.11 ± 0.2	1.18 ± 0.25	1.27 ± 0.28	1.31 ± 0.36	1.3 ± 0.25
UniProt Q93084-2	1.01 ± 0.04	0.997 ± 0.024	0.974 ± 0.017	0.976 ± 0.047	0.994 ± 0.015	0.978 ± 0.02
HSD17B8 (UniProt Q92506)	0.949 ± 0.033	0.961 ± 0.025	0.911 ± 0.063	0.985 ± 0.073	0.94 ± 0.051	0.931 ± 0.017
RAB8B (UniProt Q92930)	0.99 ± 0.053	0.97 ± 0.075	0.928 ± 0.053	0.99 ± 0.094	0.951 ± 0.068	0.954 ± 0.057
UniProt Q8TEP8-3	0.955 ± 0.1	0.994 ± 0.074	1 ± 0.029	0.999 ± 0.086	0.985 ± 0.044	0.987 ± 0.05
UniProt Q8TDR0 and related entries	0.99 ± 0.027	0.997 ± 0.041	1.04 ± 0.035	0.938 ± 0.14	0.959 ± 0.03	1.04 ± 0.053
UniProt Q969Y2 and related entries	0.966 ± 0.038	0.989 ± 0.01	0.954 ± 0.024	0.973 ± 0.036	0.952 ± 0.038	0.967 ± 0.015
ANKS1A (UniProt Q92625)	0.906 ± 0.029	0.949 ± 0.017	0.943 ± 0.027	0.94 ± 0.035	0.927 ± 0.01	0.9618 ± 0.009
UniProt Q92844 and related entries	0.966 ± 0.065	0.986 ± 0.094	0.974 ± 0.052	1.04 ± 0.12	0.946 ± 0.053	0.934 ± 0.034

Target	NP40-soluble protein abundance (concentration: 1mM)	NP40-soluble protein abundance (concentration: 2mM)	NP40-soluble protein abundance (concentration: 4mM)	NP40-soluble protein abundance (concentration: 6mM)	NP40-soluble protein abundance (concentration: 8mM)	NP40-soluble protein abundance (concentration: 10mM)
DDX1 (UniProt Q92499)	1.01 ± 0.043	0.988 ± 0.052	1 ± 0.054	1.01 ± 0.074	1.07 ± 0.051	1.04 ± 0.039
AKAP1 (UniProt Q92667)	0.992 ± 0.031	1 ± 0.014	0.981 ± 0.016	1.03 ± 0.048	0.971 ± 0.057	0.999 ± 0.027
TOPBP1 (UniProt Q92547)	1.07 ± 0.052	1.07 ± 0.013	1.08 ± 0.06	1.1 ± 0.072	1.12 ± 0.04	1.12 ± 0.068
BCL7C (UniProt Q8WUZ0)	0.991 ± 0.054	0.977 ± 0.065	0.996 ± 0.075	0.978 ± 0.17	0.913 ± 0.097	0.956 ± 0.039
C18orf32 (UniProt Q8TCD1)	0.962 ± 0.16	0.868 ± 0.1	0.917 ± 0.071	0.999 ± 0.058	0.835 ± 0.034	0.799 ± 0.16
UniProt Q8TDN6	1.04 ± 0.029	1.11 ± 0.073	1.13 ± 0.068	1.24 ± 0.079	1.2 ± 0.043	1.35 ± 0.065
UniProt Q969E4	0.998 ± 0.15	0.995 ± 0.16	0.919 ± 0.12	1.04 ± 0.2	0.999 ± 0.18	0.904 ± 0.25
ISG20 (UniProt Q96AZ6)	1.12 ± 0.14	1.07 ± 0.11	1.2 ± 0.19	1.14 ± 0.14	1.12 ± 0.16	1.1 ± 0.12
UniProt Q8TF01	1.37 ± 0.11	1.28 ± 0.078	1.29 ± 0.066	1.34 ± 0.045	1.31 ± 0.034	1.35 ± 0.048
UniProt Q96B23-2	0.803 ± 0.099	0.759 ± 0.099	0.74 ± 0.09	0.779 ± 0.09	0.712 ± 0.062	0.711 ± 0.052
NOC3L (UniProt Q8WTT2)	1.12 ± 0.052	1.17 ± 0.053	1.25 ± 0.063	1.31 ± 0.057	1.39 ± 0.056	1.43 ± 0.037
AIDA (UniProt Q96BJ3)	1 ± 0.035	1.03 ± 0.038	1.01 ± 0.07	1.03 ± 0.015	0.983 ± 0.028	0.992 ± 0.06
UniProt Q92973 and related entries	0.949 ± 0.05	0.989 ± 0.073	0.972 ± 0.034	0.876 ± 0.086	0.924 ± 0.049	0.974 ± 0.048
UniProt Q8TDZ2 and related entries	0.99 ± 0.016	0.971 ± 0.023	0.94 ± 0.03	0.955 ± 0.071	0.918 ± 0.011	0.945 ± 0.027
RNF138 (UniProt Q8WVD3)	1.06 ± 0.011	1.11 ± 0.025	1.09 ± 0.058	1.1 ± 0.034	1.04 ± 0.06	1.1 ± 0.035
NANP (UniProt Q8TBE9)	1.04 ± 0.036	1.07 ± 0.033	1.03 ± 0.012	0.987 ± 0.042	1 ± 0.032	0.985 ± 0.034
UniProt Q8WUB8 and related entries	1.2 ± 0.026	1.21 ± 0.058	1.26 ± 0.073	1.33 ± 0.17	1.29 ± 0.05	1.31 ± 0.022
UniProt Q8WVM7 and related entries	1.03 ± 0.083	1.06 ± 0.1	1.02 ± 0.016	0.95 ± 0.085	1.05 ± 0.052	1.08 ± 0.11
UniProt Q92572	0.895 ± 0.1	0.945 ± 0.038	0.979 ± 0.013	0.966 ± 0.056	0.938 ± 0.015	0.919 ± 0.028
UniProt Q92878 and related entries	1.07 ± 0.028	1.06 ± 0.013	1.04 ± 0.015	1.08 ± 0.026	1.04 ± 0.013	1.04 ± 0.019

Target	NP40-soluble protein abundance (concentration: 1mM)	NP40-soluble protein abundance (concentration: 2mM)	NP40-soluble protein abundance (concentration: 4mM)	NP40-soluble protein abundance (concentration: 6mM)	NP40-soluble protein abundance (concentration: 8mM)	NP40-soluble protein abundance (concentration: 10mM)
UniProt Q8WU76 and related entries	0.975 ± 0.1	0.983 ± 0.064	0.955 ± 0.033	0.914 ± 0.082	0.986 ± 0.063	0.946 ± 0.028
UBASH3B (UniProt Q8TF42)	0.993 ± 0.082	0.982 ± 0.071	0.979 ± 0.052	0.93 ± 0.11	1 ± 0.041	0.973 ± 0.068
STT3B (UniProt Q8TCJ2)	0.962 ± 0.047	0.967 ± 0.052	0.965 ± 0.012	0.906 ± 0.027	0.966 ± 0.017	0.976 ± 0.061
EMG1 (UniProt Q92979)	1.1 ± 0.033	1.11 ± 0.044	1.19 ± 0.027	1.18 ± 0.072	1.214 ± 0.01	1.26 ± 0.018
BAD (UniProt Q92934)	0.861 ± 0.12	0.887 ± 0.12	0.915 ± 0.1	1.05 ± 0.21	0.896 ± 0.15	0.903 ± 0.17
UniProt Q92851-4	1.05 ± 0.056	1.06 ± 0.14	0.997 ± 0.1	1 ± 0.055	0.948 ± 0.075	0.982 ± 0.056
GEMIN6 (UniProt Q8WXD5)	0.986 ± 0.041	0.832 ± 0.14	0.883 ± 0.015	0.882 ± 0.081	0.871 ± 0.047	0.827 ± 0.02
RTF1 (UniProt Q92541)	0.914 ± 0.054	0.909 ± 0.036	0.876 ± 0.03	0.939 ± 0.025	0.889 ± 0.02	0.89 ± 0.023
H1FX (UniProt Q92522)	0.974 ± 0.1	0.917 ± 0.043	0.959 ± 0.079	1.05 ± 0.069	1.02 ± 0.013	1.05 ± 0.1
RABGGTA (UniProt Q92696)	1.03 ± 0.095	1.02 ± 0.076	1.01 ± 0.064	0.947 ± 0.11	1.01 ± 0.049	0.988 ± 0.044
ZCRB1 (UniProt Q8TBF4)	1.02 ± 0.11	0.989 ± 0.059	1 ± 0.052	1.02 ± 0.024	1 ± 0.12	0.967 ± 0.086
CASKIN2 (UniProt Q8WXE0)	1 ± 0.036	1.05 ± 0.034	1.05 ± 0.045	1.03 ± 0.069	0.988 ± 0.053	1.04 ± 0.019
GGH (UniProt Q92820)	0.9257 ± 0.006	0.95 ± 0.044	0.9271 ± 0.006	0.938 ± 0.058	0.917 ± 0.029	0.898 ± 0.032
NSUN6 (UniProt Q8TEA1)	1.01 ± 0.037	1.01 ± 0.038	0.997 ± 0.027	0.958 ± 0.091	0.979 ± 0.045	0.992 ± 0.055
UniProt Q8TD16-2|Q8TD16	0.98 ± 0.053	0.988 ± 0.022	0.978 ± 0.015	1.01 ± 0.039	0.951 ± 0.022	0.938 ± 0.028
UniProt Q8TEX9 and related entries	0.935 ± 0.087	0.964 ± 0.051	0.939 ± 0.029	0.864 ± 0.086	0.913 ± 0.023	0.969 ± 0.046
UniProt Q96B01 and related entries	0.987 ± 0.044	1.02 ± 0.041	0.974 ± 0.057	1.08 ± 0.032	1 ± 0.098	1.02 ± 0.093
MRPL24 (UniProt Q96A35)	1.05 ± 0.058	0.869 ± 0.066	0.829 ± 0.079	0.841 ± 0.25	0.879 ± 0.14	0.82 ± 0.15
EDEM1 (UniProt Q92611)	0.961 ± 0.063	1 ± 0.036	0.951 ± 0.088	0.959 ± 0.069	0.967 ± 0.015	0.965 ± 0.061
IP6K1 (UniProt Q92551)	1.04 ± 0.16	1 ± 0.066	1.01 ± 0.073	0.999 ± 0.058	0.991 ± 0.062	0.993 ± 0.074

Quoted from above for reference:
Target	NP40-soluble protein abundance (concentration: 1mM)	NP40-soluble protein abundance (concentration: 2mM)	NP40-soluble protein abundance (concentration: 4mM)	NP40-soluble protein abundance (concentration: 6mM)	NP40-soluble protein abundance (concentration: 8mM)	NP40-soluble protein abundance (concentration: 10mM)
BCL7C (UniProt Q8WUZ0)	0.991 ± 0.054	0.977 ± 0.065	0.996 ± 0.075	0.978 ± 0.17	0.913 ± 0.097	0.956 ± 0.039
C18orf32 (UniProt Q8TCD1)	0.962 ± 0.16	0.868 ± 0.1	0.917 ± 0.071	0.999 ± 0.058	0.835 ± 0.034	0.799 ± 0.16
UniProt Q8TDN6	1.04 ± 0.029	1.11 ± 0.073	1.13 ± 0.068	1.24 ± 0.079	1.2 ± 0.043	1.35 ± 0.065
